10 molecules from the supplement of paper PMC7889204 can be followed below.

The structures appear in SMILES notation. The list shows a part of the results. Most values come without repeats; read them as rough.

This test relates to C6. Nature of the test: cell mass (Coomassie absorbance) after combination of library compound with HMBA, relative to vehicle control (fraction); higher = more remaining cells (less growth inhibition).
Take `CN1CCCCC1Cn1cc(C(=O)c2cc([N+](=O)[O-])ccc2I)c2ccccc21` (stereo not given) + CC(=O)NCCCCCCNC(C)=O [hexamethylene bisacetamide]: the cell mass was 0.7.

For the molecule `CN1CCN(c2ccc([N+](=O)[O-])c3no[n+]([O-])c23)CC1` + CC(=O)NCCCCCCNC(C)=O [hexamethylene bisacetamide], the cell mass was determined as 0.615.

On to `Cc1ccccc1-n1c(Cn2ncc3c(N)ncnc32)nc2cccc(C)c2c1=O` + CC(=O)NCCCCCCNC(C)=O [hexamethylene bisacetamide], for which the cell mass was 0.495.

As for `CC1=C2C[C@H]3[C@@H](CC=C4C[C@@H](O)CC[C@@]43C)[C@@H]2CC[C@]12O[C@@H]1C[C@H](C)CN[C@H]1[C@H]2C` [Cyclopamine] + CC(=O)NCCCCCCNC(C)=O [hexamethylene bisacetamide], the cell mass was found to be 0.544.

Take `Cc1ccccc1-n1c(Cn2cnc3c(N)ncnc32)nc2cccc(C)c2c1=O` + CC(=O)NCCCCCCNC(C)=O [hexamethylene bisacetamide]: the cell mass stood at 0.256.

On to `C[C@](O)(COc1ccc(C#N)cc1)C(=O)Nc1ccc(C#N)c(C(F)(F)F)c1` [Ostarine(MK-2866)] + CC(=O)NCCCCCCNC(C)=O [hexamethylene bisacetamide], for which the cell mass turned out to be 0.609.

For `C[C@]12CCC(=O)C(O)=C1CC[C@@H]1[C@@H]2CC[C@]2(C)C(=O)CC[C@@H]12` [Formestane] + CC(=O)NCCCCCCNC(C)=O [hexamethylene bisacetamide], the cell mass worked out at 0.649.

Take `CC(=O)Nc1ccc(OC[C@](C)(O)C(=O)Nc2ccc([N+](=O)[O-])c(C(F)(F)F)c2)cc1` [Andarine] + CC(=O)NCCCCCCNC(C)=O [hexamethylene bisacetamide]: the cell mass amounted to 0.635.

Take `CC[C@@H](C(=O)[C@@H](C)[C@@H](O)[C@H](C)[C@@H]1O[C@@H]([C@@H](CC)C(=O)O)CC[C@@H]1C)[C@H]1O[C@]2(C=C[C@@H](O)[C@]3(CC[C@@](C)([C@H]4CC[C@](O)(CC)[C@H](C)O4)O3)O2)[C@H](C)C[C@@H]1C` [Salinomycin] + CC(=O)NCCCCCCNC(C)=O [hexamethylene bisacetamide]: the cell mass was 0.0944.

As for `CCN1CCN(C(=O)Cc2ccc(Nc3ncc(F)c(Nc4ccc(C(=O)Nc5ccccc5Cl)cc4)n3)cc2)CC1` [Aurora A Inhibitor I] + CC(=O)NCCCCCCNC(C)=O [hexamethylene bisacetamide], the cell mass is 0.647.
